According to the supplement of paper PMC9254222:
The full ranking holds about 1,100 compounds; the median of “Renilla luciferase signal (cell health) relative to plate median” is about 0.97, and the highest 2% start at about 1.6. This is a selection; strong and weak results do not stand in their true shares.

Tested on: HEK293T (UBE3A T485A transfected, BAR Wnt reporter)
Assay: Renilla luciferase signal (cell health) relative to plate median (fold (linear ratio)); higher = higher Renilla signal
Conditions: 24 h
Procedure, shortened: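 HEK293T cells were seeded at 4500 cells/well in white 384-well plates and grown in DMEM with 10% FBS at 37°C and 5% CO2. The cells were transfected using Fugene 6 with a BAR firefly luciferase Wnt reporter, TK-Renilla and an expression plasmid, and four hours later robots added the chemicals at 0.01–100 uM for 24 h before a Dual-Glo luciferase readout. Wnt activity was taken as the firefly/Renilla ratio and cell health as raw Renilla, each median-centred per plate. Values are averages of four biological replicates.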

SMILES	Renilla luciferase signal (concentration: 0.1 uM)	Renilla luciferase signal (concentration: 1 uM)	Renilla luciferase signal (concentration: 10 uM)	Renilla luciferase signal (concentration: 100 uM)	Renilla luciferase signal (concentration: 0.01 uM)
CC(C)(C)c1cccc(C(C)(C)C)c1O [2,6-Di-tert-butylphenol]	0.439	0.642	0.669	0.956	
CCCCCCCCCCO [1-Decanol]	1.01	0.98	0.966	1.2	
Cc1ccc(-c2cc(C(F)(F)F)nn2-c2ccc(S(N)(=O)=O)cc2)cc1 [Celecoxib]	0.956	0.884	0.991	1.19	
Nc1ccc(C(=O)O)cc1 [4-Aminobenzoic acid]	0.873	1.02	1.12	1.07	
O=C(O)c1cccc(N(Cc2cccnc2)c2ccc(OC(F)F)c(OC(F)F)c2)c1	1.15	1.14	1.24	0.322	
CCCCCCOC(=O)C1(O)CC2OC1(C)n1c3ccccc3c3c4c(c5c6ccccc6n2c5c31)C(=O)NC4 (stereo not given)	0.841	0.894	0.72	0.153	0.965
C1CCC(SSC2CCCCC2)CC1 [Dicyclohexyl disulfide]	0.668	0.783	0.685	0.73	
Oc1cccc(O)c1 [Resorcinol]	1.05	0.981	1.03	1.22	
CCC(C)(C)C1CCC(O)CC1 (stereo not given) [4-(2-Methylbutan-2-yl)cyclohexanol]	0.723	0.82	0.757	1.11	
CC1=CC(=O)/C(=C(/C)[O-])C(=O)O1.[Na+] [Sodium dehydroacetate]	0.915	0.975	1.03	1.23	
CCCOC(=O)c1ccc(O)cc1 [Propylparaben]	0.868	0.955	0.874	0.536	
O=C1CCCCCN1 [Caprolactam]	0.921	1.04	1.06	1.25	
O=C1O[C@H]([C@H](O)CO)C([O-])=C1O.[Na+] [Sodium erythorbate (1:1)]	0.886	0.99	0.853	1.22	
c1ccc2c(c1)ccc1ccccc12 [Phenanthrene]	0.817	0.792	0.858	0.898	
N#C[C@@H]1CC(F)(F)CN1C(=O)CNC1CC2CCC(C1)N2c1ncccn1 (stereo not given in full)	0.805	1.04	0.919	1.25	
CCCC(=O)O [Butanoic acid]				1.73	
CCCCCCCCCCCCCCCCCC(=O)O [Octadecanoic acid]	0.913	0.958	0.923	1.4	
Cc1cn([C@H]2C[C@H](N=[N+]=[N-])[C@@H](CO)O2)c(=O)[nH]c1=O [3'-Azido-3'-deoxythymidine]	0.974	0.837	0.864	1.35	
CC(C)CCO [Isopentyl alcohol]	0.921	0.885	0.989	1.29	
CCCCc1oc2ccccc2c1C(=O)c1cc(I)c(OCCN(CC)CC)c(I)c1.Cl [Amiodarone hydrochloride]	0.889	0.939	1.04	1.29	

Complete entries as entered above:
CCCCCCOC(=O)C1(O)CC2OC1(C)n1c3ccccc3c3c4c(c5c6ccccc6n2c5c31)C(=O)NC4 (stereo not given) is listed as Renilla luciferase signal (concentration: 0.1 uM): 0.841; Renilla luciferase signal (concentration: 1 uM): 0.894; Renilla luciferase signal (concentration: 10 uM): 0.72; Renilla luciferase signal (concentration: 100 uM): 0.153; Renilla luciferase signal (concentration: 0.01 uM): 0.965
CC1=CC(=O)/C(=C(/C)[O-])C(=O)O1.[Na+] [Sodium dehydroacetate] is listed as Renilla luciferase signal (concentration: 0.1 uM): 0.915; Renilla luciferase signal (concentration: 1 uM): 0.975; Renilla luciferase signal (concentration: 10 uM): 1.03; Renilla luciferase signal (concentration: 100 uM): 1.23
N#C[C@@H]1CC(F)(F)CN1C(=O)CNC1CC2CCC(C1)N2c1ncccn1 (stereo not given in full) is listed as Renilla luciferase signal (concentration: 0.1 uM): 0.805; Renilla luciferase signal (concentration: 1 uM): 1.04; Renilla luciferase signal (concentration: 10 uM): 0.919; Renilla luciferase signal (concentration: 100 uM): 1.25

(list continues)

SMILES	Renilla luciferase signal (concentration: 0.1 uM)	Renilla luciferase signal (concentration: 1 uM)	Renilla luciferase signal (concentration: 10 uM)	Renilla luciferase signal (concentration: 100 uM)	Renilla luciferase signal (concentration: 0.01 uM)
Fc1ccccc1[C@@H](F)CO[C@H]1CC[C@H](Nc2[nH]cnc3nncc2-3)CC1	1.06	1.09	0.996	0.148	
Cc1ccc(Cl)cc1 [4-Chlorotoluene]	0.968	1.19	1.06	1.45	
O=C([N-]S(=O)(=O)/C=C/c1ccccc1)c1ccc(F)cc1Cl.[Na+]	0.836	0.721	0.459	0.255	
CC(C)CCCCCCOC(=O)CCCCC(=O)OCCCCCCC(C)C [Hexanedioic acid, diisononyl ester]	1.07	1.01	1.05	1.19	
C=C(C)C(=O)OCCC(F)(F)C(F)(F)C(F)(F)C(F)(F)C(F)(F)C(F)(F)F [Tridecafluorohexylethyl methacrylate]	1.04	0.84	1.04	1.25	
CC[C@H](NC(=O)c1cc(F)ccc1[N-]S(=O)(=O)c1cccc2cccnc12)c1ccccc1.[Na+]	0.854	0.88	0.969	0.167	
c1ccc(Nc2ccccc2)cc1 [Diphenylamine]	1.05	1.06	1.09	1.82	1.09
C[C@]12CC[C@@H]3c4ccc(O)cc4CC[C@H]3[C@@H]1CC[C@H]2O [17alpha-Estradiol]	0.89	0.998	0.886	0.0462	
c1ccc2cc3c(ccc4ccccc43)cc2c1 [Benz(a)anthracene]	1.01	0.965	1.06	1.03	
NS(=O)(=O)c1cc2c(cc1Cl)NCNS2(=O)=O [Hydrochlorothiazide]	0.839	0.893	1.03	1.13	
c1ccc2c(c1)Cc1ccccc1-2 [Fluorene]	1.05	1.01	1.08	1.24	
CS(=O)(=O)c1ccc([C@@H](C[C@H]2CCC(=O)C2)C(=O)Nc2cnccn2)cc1Cl [Piragliatin]	0.825	0.77	0.899	1.01	
CCSC(=O)N(CC(C)C)CC(C)C [Butylate]	1.15	1.07	1.09	1.59	1.09
Oc1ccccc1 [Phenol]	0.976	0.933	0.959	1.02	
CCC(=C(c1ccc(O)cc1)c1ccc(OCCN(C)C)cc1)c1ccccc1 [4-Hydroxytamoxifen]	0.751	0.861	0.667	0.0215	
CCCCCCCCCCCC(=O)OC [Methyl dodecanoate]	0.884	0.792	0.85	0.89	
Cc1cc(=O)[nH]c(=S)[nH]1 [6-Methyl-2-thiouracil]	1.04	1.03	1.01	1.37	
CCCCOCCOCCO [2-(2-Butoxyethoxy)ethanol]	0.85	0.895	0.705	0.863	
CO[C@H]1/C=C/O[C@@]2(C)Oc3c(C)c(O)c4c(O)c(c(/C=N/N5CCN(C)CC5)c(O)c4c3C2=O)NC(=O)/C(C)=C\C=C\[C@H](C)[C@H](O)[C@@H](C)[C@@H](O)[C@@H](C)[C@H](OC(C)=O)[C@@H]1C [Rifampicin]	0.803	0.857	0.732	0.214	
O=c1c(O)c(-c2ccc(O)c(O)c2)oc2cc(O)cc(O)c12 [Quercetin]	0.645	0.689	0.465	0.0436	
